The values that follow come from patent publication US6329497A (The Scripps Research Institute, priority 1999, dated 2001).

This data set in a line: general procedure: solution-phase peptide synthesis; EDCI, HOBt, NaHCO3 (chromophore coupling); DCC, DMAP (fragments).

As to “N-SES-D-Ser[Boc-Gly-Sar-NMe-Val]-Pip-OBn”, the step yield (coupling step) came out at 79%.

Take Sandramycin: the step yield (late stage modification step) came out at 78%.

With Sandramycin Bis-O-benzyl Ether, for the setting “conjugation step”, the conjugation yield is 91%.
